Measurements published in PubChem BioAssay (NCI).
Shown are results outside the selection of hits, which stands elsewhere. Calls of active or inactive are those of the source. No stated cut-off is given here; in the data, active means growth inhibition above about 70%; inactive means the rest.

How the values were obtained:
[1] = NCI Yeast Anticancer Drug Screen. Data for the rad52 strain (AID 147);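 further: 0% = growth of vehicle-treated control cultures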; settings: S. cerevisiae rad52 mutant growth inhibition, hits give high values
Method in brief: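 Screen used a yeast mutant impaired in DNA repair. After compound exposure, growth was measured. Values reflect inhibition compared with vehicle-treated cells.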

[2] = NCI Yeast Anticancer Drug Screen. Data for the wt1 strain (AID 149);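 further: 0% = growth of vehicle-treated wt1 cultures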; settings: S. cerevisiae wt1 strain (SPY 50644) growth inhibition, hits give high values
Method in brief: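 The wt1 strain was treated with compounds, and growth was compared with vehicle-treated cultures to give inhibition.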

[3] = NCI Yeast Anticancer Drug Screen. Data for the rad50EPP+ strain (AID 151);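 further: 0% = growth of vehicle-treated control cultures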; settings: S. cerevisiae rad50 mutant strain, hits give high values
Method in brief: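 Exposing the rad50EPP+ strain to each compound, growth was compared with vehicle-only cultures to give inhibition.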

[4] = NCI Yeast Anticancer Drug Screen. Data for the mgt1 strain (AID 153); settings: S. cerevisiae mgt1 mutant growth inhibition, hits give high values
Method in brief: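 Genetically defined yeast (mgt1) treated with compound; inhibition of growth expressed against vehicle-treated controls.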

[5] = NCI Yeast Anticancer Drug Screen. Data for the rad14 strain (AID 159);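 further: 0% = growth of vehicle-treated control cultures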; settings: S. cerevisiae rad14 strain growth inhibition, hits give high values
Method in brief: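 Readout: yeast growth inhibition, referenced to vehicle-only cultures. Strain bears a defined alteration in DNA damage repair.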

[6] = NCI Yeast Anticancer Drug Screen. Data for the CLN2oe strain (AID 163);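 further: 0% = growth of vehicle-only control cultures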; settings: S. cerevisiae CLN2oe strain, hits give high values
Method in brief: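 Values reflect how much compound exposure reduced yeast growth, referenced to vehicle-exposed cells. Assay organism is a strain with a defined genetic change affecting cell-cycle control.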

[7] = NCI Yeast Anticancer Drug Screen. Data for the wt2 strain (AID 169);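 further: 0% = growth of vehicle-treated yeast cultures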; settings: S. cerevisiae wt2 strain growth inhibition, hits give high values
Method in brief: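 Values express reduction in yeast growth under compound treatment, referenced to vehicle-treated cells.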

[8] = NCI Yeast Anticancer Drug Screen. Data for the mlh1 strain (AID 171);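 further: 0% = growth of vehicle-treated control cultures of the same strain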; settings: S. cerevisiae mlh1 strain growth inhibition, hits give high values
Method in brief: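 Steps: expose the defined-mutant yeast strain to compound; expose a parallel culture to vehicle; measure growth; express compound effect as inhibition relative to the vehicle culture.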

[9] = NCI Yeast Anticancer Drug Screen. Data for the sgs1 strain (AID 173);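 further: 0% = growth of vehicle-only control cultures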; settings: S. cerevisiae sgs1 mutant, hits give high values
Method in brief: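 Treat defined-mutant yeast with compound; measure growth; calculate inhibition relative to vehicle-treated cells.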

[10] = NCI Yeast Anticancer Drug Screen. Data for the rad18 strain (AID 177); settings: S. cerevisiae rad18 mutant growth inhibition, hits give high values
Method in brief: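 A genetically defined yeast mutant impaired in DNA damage repair was treated with test compounds, then its growth was measured against cultures receiving vehicle alone.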

Measured: growth inhibition

CN(C)CCNC(=O)c1cc([N+](=O)[O-])cc2ccc(-c3ccccc3)nc12
inactive: [1]; at 1.2 µM -1% | [1]; at 3.7 µM -1% | [1]; at 11.0 µM -2% | [1]; at 33.0 µM 1% | [1]; at 100.0 µM 35% | [2]; at 1.2 µM -1% | [2]; at 3.7 µM -2% | [2]; at 11.0 µM -4% | [2]; at 33.0 µM -3% | [2]; at 100.0 µM -1% | [3]; at 1.2 µM 0% | [3]; at 3.7 µM 0% | [3]; at 11.0 µM 0% | [3]; at 33.0 µM 7% | [3]; at 100.0 µM 33% | [4]; at 1.2 µM -2% | [4]; at 3.7 µM -1% | [4]; at 11.0 µM -1% | [4]; at 33.0 µM -2% | [4]; at 100.0 µM 1% | [5]; at 1.2 µM 2% | [5]; at 3.7 µM 2% | [5]; at 11.0 µM 3% | [5]; at 33.0 µM 4% | [5]; at 100.0 µM 9% | [6]; at 1.2 µM 2% | [6]; at 3.7 µM -2% | [6]; at 11.0 µM -1% | [6]; at 33.0 µM -4% | [6]; at 100.0 µM -5% | [7]; at 1.2 µM -1% | [7]; at 3.7 µM 8% | [7]; at 11.0 µM -1% | [7]; at 33.0 µM 1% | [7]; at 100.0 µM 3% | [8]; at 1.2 µM -3% | [8]; at 3.7 µM -2% | [8]; at 11.0 µM -1% | [8]; at 33.0 µM -2% | [8]; at 100.0 µM 3% | [9]; at 1.2 µM -2% | [9]; at 3.7 µM 0% | [9]; at 11.0 µM 4% | [9]; at 33.0 µM 4% | [9]; at 100.0 µM 15% | [10]; at 1.2 µM 0% | [10]; at 3.7 µM 0% | [10]; at 11.0 µM -1% | [10]; at 33.0 µM 5% | [10]; at 100.0 µM 24%

CCOC(=O)NC1CCc2cc(OC)c(OC)c(OC)c2-c2ccc(OC)c(=O)cc21 (stereo not given)
inactive: [2]; at 1.2 µM 1% | [2]; at 3.7 µM -1% | [2]; at 11.0 µM 0% | [2]; at 33.0 µM -2% | [2]; at 100.0 µM 23% | [3]; at 1.2 µM -1% | [3]; at 3.7 µM -12% | [3]; at 11.0 µM 0% | [3]; at 33.0 µM -5% | [3]; at 100.0 µM 0% | [5]; at 1.2 µM -1% | [5]; at 3.7 µM -3% | [5]; at 11.0 µM -2% | [5]; at 33.0 µM -5% | [5]; at 100.0 µM -5% | [7]; at 1.2 µM -1% | [7]; at 3.7 µM -1% | [7]; at 11.0 µM -1% | [7]; at 33.0 µM -1% | [7]; at 100.0 µM -1% | [8]; at 1.2 µM -1% | [8]; at 3.7 µM -1% | [8]; at 11.0 µM 0% | [8]; at 33.0 µM 0% | [8]; at 100.0 µM 0% | [9]; at 1.2 µM 1% | [9]; at 3.7 µM 0% | [9]; at 11.0 µM 2% | [9]; at 33.0 µM 0% | [9]; at 100.0 µM 0% | [10]; at 1.2 µM 1% | [10]; at 3.7 µM -1% | [10]; at 11.0 µM -1% | [10]; at 33.0 µM 0% | [10]; at 100.0 µM 5%

CC(C)(C(=O)O)n1c(-c2ccccc2)c(-c2ccccc2)oc1=O
inactive: [1]; at 1.2 µM -2% | [1]; at 3.7 µM -2% | [1]; at 11.0 µM 0% | [1]; at 33.0 µM -3% | [1]; at 100.0 µM 0% | [2]; at 1.2 µM 0% | [2]; at 3.7 µM 5% | [2]; at 11.0 µM 1% | [2]; at 33.0 µM 1% | [2]; at 100.0 µM 5% | [3]; at 1.2 µM 2% | [3]; at 3.7 µM 4% | [3]; at 11.0 µM 4% | [3]; at 33.0 µM 1% | [3]; at 100.0 µM 2% | [4]; at 1.2 µM -4% | [4]; at 3.7 µM -3% | [4]; at 11.0 µM -2% | [4]; at 33.0 µM -2% | [4]; at 100.0 µM 0% | [5]; at 1.2 µM -3% | [5]; at 3.7 µM -1% | [5]; at 11.0 µM 1% | [5]; at 33.0 µM 1% | [5]; at 100.0 µM 4% | [6]; at 1.2 µM -6% | [6]; at 3.7 µM -10% | [6]; at 11.0 µM -8% | [6]; at 33.0 µM 0% | [6]; at 100.0 µM 4% | [7]; at 1.2 µM -1% | [7]; at 3.7 µM -1% | [7]; at 11.0 µM -2% | [7]; at 33.0 µM 0% | [7]; at 100.0 µM 2% | [8]; at 1.2 µM -1% | [8]; at 3.7 µM 1% | [8]; at 11.0 µM 0% | [8]; at 33.0 µM 2% | [8]; at 100.0 µM 3% | [9]; at 1.2 µM 0% | [9]; at 3.7 µM -1% | [9]; at 11.0 µM 0% | [9]; at 33.0 µM 1% | [9]; at 100.0 µM 4% | [10]; at 1.2 µM 2% | [10]; at 3.7 µM 2% | [10]; at 11.0 µM 5% | [10]; at 33.0 µM 15% | [10]; at 100.0 µM 30%

CC(Oc1ccc(Oc2cnc3ccc(Cl)cc3n2)cc1)C(=O)O (stereo not given)
inactive: [1]; at 1.2 µM 7% | [1]; at 3.7 µM 7% | [1]; at 11.0 µM 9% | [1]; at 33.0 µM 8% | [1]; at 100.0 µM 35% | [2]; at 1.2 µM 3% | [2]; at 3.7 µM 3% | [2]; at 11.0 µM 1% | [2]; at 33.0 µM 3% | [2]; at 100.0 µM 24% | [3]; at 1.2 µM 2% | [3]; at 3.7 µM 1% | [3]; at 11.0 µM 0% | [3]; at 33.0 µM 1% | [3]; at 100.0 µM 2% | [4]; at 1.2 µM 3% | [4]; at 3.7 µM 2% | [4]; at 11.0 µM 4% | [4]; at 33.0 µM 2% | [4]; at 100.0 µM 43% | [5]; at 1.2 µM 4% | [5]; at 3.7 µM 2% | [5]; at 11.0 µM 5% | [5]; at 33.0 µM 9% | [5]; at 100.0 µM 27% | [6]; at 1.2 µM 3% | [6]; at 3.7 µM 3% | [6]; at 11.0 µM 6% | [6]; at 33.0 µM 10% | [6]; at 100.0 µM 31% | [7]; at 1.2 µM 2% | [7]; at 3.7 µM 2% | [7]; at 11.0 µM 3% | [7]; at 33.0 µM 11% | [7]; at 100.0 µM 39% | [8]; at 1.2 µM 3% | [8]; at 3.7 µM 2% | [8]; at 11.0 µM 3% | [8]; at 33.0 µM 13% | [8]; at 100.0 µM 37% | [9]; at 1.2 µM 4% | [9]; at 3.7 µM 2% | [9]; at 11.0 µM 1% | [9]; at 33.0 µM 24% | [9]; at 100.0 µM 55% | [10]; at 1.2 µM 5% | [10]; at 3.7 µM 6% | [10]; at 11.0 µM 9% | [10]; at 33.0 µM 19% | [10]; at 100.0 µM 45%
